In the supplement of paper PMC10849652:
The other results are listed elsewhere or left out.

Amino acid sequences for entries named in this document (tags omitted). A change or cut given only in a name is not applied to a line headed by its entry.
UniProt Q9Y3C6: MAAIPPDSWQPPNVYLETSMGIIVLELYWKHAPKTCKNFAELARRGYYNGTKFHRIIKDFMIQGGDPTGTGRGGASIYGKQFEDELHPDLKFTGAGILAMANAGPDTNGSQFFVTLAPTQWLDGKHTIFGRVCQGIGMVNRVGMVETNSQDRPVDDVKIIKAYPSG
UniProt Q86WR7: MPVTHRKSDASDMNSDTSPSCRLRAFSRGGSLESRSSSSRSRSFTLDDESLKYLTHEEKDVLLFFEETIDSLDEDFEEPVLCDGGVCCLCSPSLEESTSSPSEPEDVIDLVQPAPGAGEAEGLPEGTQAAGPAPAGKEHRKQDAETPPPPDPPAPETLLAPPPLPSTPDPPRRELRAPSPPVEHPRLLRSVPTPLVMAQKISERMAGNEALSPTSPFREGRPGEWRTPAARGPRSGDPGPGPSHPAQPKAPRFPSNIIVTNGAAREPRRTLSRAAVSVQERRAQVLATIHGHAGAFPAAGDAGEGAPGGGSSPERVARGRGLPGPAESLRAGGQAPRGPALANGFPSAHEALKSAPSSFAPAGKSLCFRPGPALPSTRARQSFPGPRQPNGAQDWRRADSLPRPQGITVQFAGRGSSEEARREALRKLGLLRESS
UniProt Q9BZL4: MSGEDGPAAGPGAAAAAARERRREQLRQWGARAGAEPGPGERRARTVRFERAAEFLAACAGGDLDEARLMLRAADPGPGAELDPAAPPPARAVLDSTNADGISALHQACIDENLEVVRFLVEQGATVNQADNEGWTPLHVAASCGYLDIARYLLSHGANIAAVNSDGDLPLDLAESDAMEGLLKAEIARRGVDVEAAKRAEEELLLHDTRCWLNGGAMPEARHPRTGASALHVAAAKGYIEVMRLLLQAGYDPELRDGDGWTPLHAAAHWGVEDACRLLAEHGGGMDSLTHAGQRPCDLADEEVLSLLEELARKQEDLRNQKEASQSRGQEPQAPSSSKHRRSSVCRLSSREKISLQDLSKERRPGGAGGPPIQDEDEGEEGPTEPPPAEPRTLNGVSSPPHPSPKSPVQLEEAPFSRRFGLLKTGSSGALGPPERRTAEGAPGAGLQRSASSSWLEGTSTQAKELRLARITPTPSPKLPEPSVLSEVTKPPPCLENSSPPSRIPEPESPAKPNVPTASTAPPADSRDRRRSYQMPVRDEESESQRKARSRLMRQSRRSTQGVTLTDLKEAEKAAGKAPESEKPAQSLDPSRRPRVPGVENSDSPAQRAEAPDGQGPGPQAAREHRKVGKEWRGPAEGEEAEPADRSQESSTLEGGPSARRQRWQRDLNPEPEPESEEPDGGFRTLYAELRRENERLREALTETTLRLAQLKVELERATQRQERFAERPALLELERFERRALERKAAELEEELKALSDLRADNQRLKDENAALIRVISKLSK
UniProt Q9NR22, whole entry, looked up: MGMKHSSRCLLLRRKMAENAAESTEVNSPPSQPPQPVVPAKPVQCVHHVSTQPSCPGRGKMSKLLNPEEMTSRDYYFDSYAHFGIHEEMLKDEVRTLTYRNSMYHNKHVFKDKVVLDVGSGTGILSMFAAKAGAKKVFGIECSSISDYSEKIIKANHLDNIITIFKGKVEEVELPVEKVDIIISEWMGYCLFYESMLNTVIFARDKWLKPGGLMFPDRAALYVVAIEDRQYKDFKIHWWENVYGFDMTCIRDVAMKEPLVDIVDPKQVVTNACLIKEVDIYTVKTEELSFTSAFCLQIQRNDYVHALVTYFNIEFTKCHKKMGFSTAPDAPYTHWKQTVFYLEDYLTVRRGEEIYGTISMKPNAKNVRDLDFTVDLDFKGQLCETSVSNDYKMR
UniProt O75569: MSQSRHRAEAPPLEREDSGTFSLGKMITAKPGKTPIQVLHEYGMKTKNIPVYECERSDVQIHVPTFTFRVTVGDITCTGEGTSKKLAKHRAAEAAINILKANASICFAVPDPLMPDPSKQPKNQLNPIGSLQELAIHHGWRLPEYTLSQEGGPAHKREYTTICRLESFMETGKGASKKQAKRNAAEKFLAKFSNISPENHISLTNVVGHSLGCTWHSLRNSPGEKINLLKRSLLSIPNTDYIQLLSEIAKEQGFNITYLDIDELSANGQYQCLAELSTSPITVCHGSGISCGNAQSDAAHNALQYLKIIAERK
UniProt Q8WUF5: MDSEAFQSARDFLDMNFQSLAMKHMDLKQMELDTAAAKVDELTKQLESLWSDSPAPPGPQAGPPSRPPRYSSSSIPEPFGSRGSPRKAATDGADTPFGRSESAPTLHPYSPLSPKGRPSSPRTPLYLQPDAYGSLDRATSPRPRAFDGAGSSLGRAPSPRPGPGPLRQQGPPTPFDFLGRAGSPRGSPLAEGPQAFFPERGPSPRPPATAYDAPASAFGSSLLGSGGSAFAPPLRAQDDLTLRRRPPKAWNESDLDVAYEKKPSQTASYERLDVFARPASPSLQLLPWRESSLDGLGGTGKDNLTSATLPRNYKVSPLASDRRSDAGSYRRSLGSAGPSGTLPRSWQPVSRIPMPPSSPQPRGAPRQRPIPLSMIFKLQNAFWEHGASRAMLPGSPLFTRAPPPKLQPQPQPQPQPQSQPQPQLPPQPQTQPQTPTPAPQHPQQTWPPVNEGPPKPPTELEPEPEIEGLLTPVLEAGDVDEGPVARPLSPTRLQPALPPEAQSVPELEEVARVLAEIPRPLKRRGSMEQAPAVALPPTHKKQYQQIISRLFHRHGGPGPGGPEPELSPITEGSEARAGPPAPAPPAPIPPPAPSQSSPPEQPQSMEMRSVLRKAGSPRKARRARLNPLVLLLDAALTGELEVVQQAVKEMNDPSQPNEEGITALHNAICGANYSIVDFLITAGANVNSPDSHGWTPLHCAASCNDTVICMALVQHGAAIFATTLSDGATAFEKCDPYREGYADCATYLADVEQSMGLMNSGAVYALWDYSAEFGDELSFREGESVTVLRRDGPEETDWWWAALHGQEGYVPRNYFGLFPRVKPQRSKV
UniProt Q92733: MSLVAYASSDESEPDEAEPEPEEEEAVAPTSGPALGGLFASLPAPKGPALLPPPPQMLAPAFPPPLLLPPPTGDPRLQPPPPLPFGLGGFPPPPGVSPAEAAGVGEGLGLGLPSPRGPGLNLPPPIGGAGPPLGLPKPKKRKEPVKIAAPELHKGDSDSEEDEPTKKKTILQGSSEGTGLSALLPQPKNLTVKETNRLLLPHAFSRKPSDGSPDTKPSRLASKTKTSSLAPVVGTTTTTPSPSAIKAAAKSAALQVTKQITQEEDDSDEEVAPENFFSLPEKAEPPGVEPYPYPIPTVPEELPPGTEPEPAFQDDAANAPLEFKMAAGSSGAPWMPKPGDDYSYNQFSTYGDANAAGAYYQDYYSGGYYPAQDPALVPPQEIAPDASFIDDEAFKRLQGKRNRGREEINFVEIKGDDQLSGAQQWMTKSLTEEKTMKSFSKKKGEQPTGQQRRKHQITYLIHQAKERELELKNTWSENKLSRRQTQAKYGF
UniProt Q86XN7: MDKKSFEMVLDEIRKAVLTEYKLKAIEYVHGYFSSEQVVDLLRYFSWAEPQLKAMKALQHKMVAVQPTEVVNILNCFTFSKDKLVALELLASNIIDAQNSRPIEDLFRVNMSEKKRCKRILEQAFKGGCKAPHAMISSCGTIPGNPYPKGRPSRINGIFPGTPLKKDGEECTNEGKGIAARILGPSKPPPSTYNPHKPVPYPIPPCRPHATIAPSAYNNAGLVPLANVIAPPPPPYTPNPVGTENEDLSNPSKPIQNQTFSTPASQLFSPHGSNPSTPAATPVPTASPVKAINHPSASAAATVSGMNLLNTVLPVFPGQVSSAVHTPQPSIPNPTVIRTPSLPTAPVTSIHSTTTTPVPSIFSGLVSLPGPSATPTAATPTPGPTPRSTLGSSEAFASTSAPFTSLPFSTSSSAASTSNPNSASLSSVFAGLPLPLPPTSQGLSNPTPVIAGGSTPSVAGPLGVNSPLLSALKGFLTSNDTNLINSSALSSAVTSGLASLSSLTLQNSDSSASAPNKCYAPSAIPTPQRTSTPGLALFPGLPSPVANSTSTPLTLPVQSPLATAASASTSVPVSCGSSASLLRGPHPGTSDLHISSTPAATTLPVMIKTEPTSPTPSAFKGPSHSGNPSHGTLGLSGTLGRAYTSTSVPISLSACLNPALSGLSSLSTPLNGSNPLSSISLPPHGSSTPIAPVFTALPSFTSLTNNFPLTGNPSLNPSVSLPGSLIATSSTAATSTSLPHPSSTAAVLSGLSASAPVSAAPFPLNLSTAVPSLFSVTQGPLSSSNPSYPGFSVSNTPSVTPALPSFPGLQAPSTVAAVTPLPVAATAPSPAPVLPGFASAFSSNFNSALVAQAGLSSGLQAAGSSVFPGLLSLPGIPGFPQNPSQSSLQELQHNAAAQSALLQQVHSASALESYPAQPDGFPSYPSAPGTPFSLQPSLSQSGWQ
UniProt Q9HCU5: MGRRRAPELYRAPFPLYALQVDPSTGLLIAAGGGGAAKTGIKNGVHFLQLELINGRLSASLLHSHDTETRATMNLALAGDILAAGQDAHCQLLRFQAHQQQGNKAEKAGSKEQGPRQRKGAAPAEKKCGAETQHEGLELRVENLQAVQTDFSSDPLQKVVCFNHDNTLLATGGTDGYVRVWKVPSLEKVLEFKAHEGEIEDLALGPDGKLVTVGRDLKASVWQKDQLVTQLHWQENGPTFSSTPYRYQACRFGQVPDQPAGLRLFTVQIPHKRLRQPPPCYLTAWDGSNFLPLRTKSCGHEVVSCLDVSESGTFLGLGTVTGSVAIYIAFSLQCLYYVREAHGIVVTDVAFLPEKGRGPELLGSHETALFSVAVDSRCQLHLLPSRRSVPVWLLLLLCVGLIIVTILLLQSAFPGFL
UniProt Q13029: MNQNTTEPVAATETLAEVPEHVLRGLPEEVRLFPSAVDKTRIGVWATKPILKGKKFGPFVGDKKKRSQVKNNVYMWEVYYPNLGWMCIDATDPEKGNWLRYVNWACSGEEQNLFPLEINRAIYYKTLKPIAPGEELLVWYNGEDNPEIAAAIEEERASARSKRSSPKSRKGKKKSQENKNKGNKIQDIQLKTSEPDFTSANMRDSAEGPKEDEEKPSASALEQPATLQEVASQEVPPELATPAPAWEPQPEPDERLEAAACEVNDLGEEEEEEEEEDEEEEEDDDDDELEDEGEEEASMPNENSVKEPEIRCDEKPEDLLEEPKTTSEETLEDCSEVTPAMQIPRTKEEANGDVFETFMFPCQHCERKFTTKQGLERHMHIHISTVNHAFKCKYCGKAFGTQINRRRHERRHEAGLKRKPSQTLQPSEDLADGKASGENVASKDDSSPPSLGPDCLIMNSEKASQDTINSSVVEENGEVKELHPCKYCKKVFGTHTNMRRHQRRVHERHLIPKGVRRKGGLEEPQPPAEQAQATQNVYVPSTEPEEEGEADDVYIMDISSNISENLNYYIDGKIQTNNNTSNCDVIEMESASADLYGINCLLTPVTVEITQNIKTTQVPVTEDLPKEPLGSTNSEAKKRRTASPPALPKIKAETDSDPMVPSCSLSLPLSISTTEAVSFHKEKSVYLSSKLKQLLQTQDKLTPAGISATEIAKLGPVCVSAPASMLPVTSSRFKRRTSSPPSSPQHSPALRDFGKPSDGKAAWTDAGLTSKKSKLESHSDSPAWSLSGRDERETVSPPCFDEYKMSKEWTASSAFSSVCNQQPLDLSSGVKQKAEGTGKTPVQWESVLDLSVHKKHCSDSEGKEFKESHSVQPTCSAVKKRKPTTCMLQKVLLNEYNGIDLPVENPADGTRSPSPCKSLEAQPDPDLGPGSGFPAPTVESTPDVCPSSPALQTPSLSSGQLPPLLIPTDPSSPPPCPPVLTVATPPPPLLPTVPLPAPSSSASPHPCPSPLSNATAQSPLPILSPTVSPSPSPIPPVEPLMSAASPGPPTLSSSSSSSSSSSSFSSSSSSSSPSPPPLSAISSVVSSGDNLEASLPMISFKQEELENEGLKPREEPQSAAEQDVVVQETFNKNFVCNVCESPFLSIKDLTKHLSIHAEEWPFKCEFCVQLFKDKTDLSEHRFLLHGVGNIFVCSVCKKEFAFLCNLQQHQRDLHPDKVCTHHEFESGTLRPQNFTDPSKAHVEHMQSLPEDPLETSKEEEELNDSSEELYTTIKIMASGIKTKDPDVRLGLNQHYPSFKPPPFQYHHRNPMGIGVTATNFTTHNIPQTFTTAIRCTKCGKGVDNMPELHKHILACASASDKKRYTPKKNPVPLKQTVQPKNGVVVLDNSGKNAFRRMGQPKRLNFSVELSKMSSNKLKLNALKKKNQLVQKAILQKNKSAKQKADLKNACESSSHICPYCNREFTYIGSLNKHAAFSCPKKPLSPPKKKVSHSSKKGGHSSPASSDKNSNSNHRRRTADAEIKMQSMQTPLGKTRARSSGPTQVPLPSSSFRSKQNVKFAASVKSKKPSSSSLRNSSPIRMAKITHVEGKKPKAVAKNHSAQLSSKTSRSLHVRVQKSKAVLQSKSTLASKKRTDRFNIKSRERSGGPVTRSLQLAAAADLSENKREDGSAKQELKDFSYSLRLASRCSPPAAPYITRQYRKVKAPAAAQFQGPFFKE

Assays:
Test in all cases: log2 fold change, soluble protein after heating vs DMSO (PISA); higher = thermal stabilisation; K562 lysate, 10 uM; active = over 0.2 and 3.5 SD of the protein, either way, in both replicates (recomputed)
[1] = compound: C#Cc1cccc(Nc2ncnc3cc(OCCOC)c(OCCOC)cc23)c1 [erlotinib]
In short: (§1)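 Soluble protein was defined as the supernatant remaining after 21,000xg for 90 min, following pooling of heated aliquots and adjustment to 0.5% NP-40 at 4°C. Before that, crude K562 extract at 1 mg/mL protein in PBS pH 7.4 with 1 mM MgCl2 was treated with 10 μM compound for 30 min and heated for 3 min across 48°C-58°C. Quantification used TMTpro 16plex LC-MS/MS with channel sums equalised, and values are log-two fold changes in thermal stability relative to solvent controls from duplicates.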

[2] = compound: C/C(=N\NC(=O)C1=CC(=CC=C1)S(=O)(=O)N2CCOCC2)/C3=C(C=CC(=C3)Cl)O
In short: as §1

[3] = compound: C1=CC(=CC=C1C2=NC3=C(N2)C=C(C=C3)C(=O)N)OC4=CC=C(C=C4)Cl
In short: as §1

[4] = compound: C1=CC2=C(C=CC(=C2)/C=C\3/C(=O)NC(=NCC4=CC=CS4)S3)N=C1
In short: as §1

[5] = compound: C1=CC2=NC=CN=C2C=C1/C=C/3\C(=O)NC(=O)S3
In short: as §1

[6] = compound: C1=CC=C(C=C1)C2=NC(=C(N2)C3=CC=NC=C3)C4=CC(=C(C=C4)Cl)O
In short: as §1

[7] = compound: C1=CC=C2C(=C1)C3=NNC4=CC=CC(=C43)C2=O
In short: as §1

[8] = compound: C1CCN(C1)C(=O)NC2=CC=CC(=C2)NC3=NC=C(C(=N3)NCCC4=CN=CN4)Br
In short: as §1

[9] = compound: C1CN(CCC1(CC2=CC=C(C=C2)Cl)N)C3=NC=NC4=C3C=CN4
In short: as §1

[10] = compound: C1COCCN1CCN2C3=CC=CC=C3N=C2NC(=O)C4=CC(=CC=C4)[N+](=O)[O-] [IRAK-1-4 Inhibitor I]
In short: as §1

[11] = compound: C=CC(=O)N1CCC[C@@H](n2nc(-c3ccc(Oc4ccccc4)cc3)c3c(N)ncnc32)C1 [ibrutinib]
In short: as §1

[12] = compound: CC(=O)c1cnc2ccc(-c3cc(Cl)c(O)c(Cl)c3)nc2c1N[C@H]1CC[C@H](CN(C)C)CC1
In short: as §1

[13] = compound: CC(C)(C)Cn1c(N)nc2ccc(-c3[nH]c(C(C)(C)C)nc3-c3ccc(F)cc3)nc21 [ralimetinib]
In short: as §1

[14] = compound: CC(C)(O)CC(=O)NCCn1ccc2ncnc(Nc3ccc(Oc4cccc(C(F)(F)F)c4)c(Cl)c3)c21
In short: as §1

[15] = compound: CC(C)C1=C2N=C(C=C(N2N=C1)NCC3=CC=CC=C3)NCCCCCCN
In short: as §1

[16] = compound: CC1=C(C(CC(=O)N1)C2=CC=C(C=C2)C(F)(F)F)C(=O)NC3=C(C=C4C(=C3)C=NN4)F
In short: as §1

[17] = compound: CC1=C(C2=C(C=C1)C(=O)C3=CC=CC=C3N2CCCN)C
In short: as §1

[18] = compound: CC1=C(C=C(C=C1)NC(=O)C2=CC(=CC=C2)C(C)(C)C#N)NC3=CC4=C(C=C3)N=CN(C4=O)C
In short: as §1

[19] = compound: CC1=C(C=C(C=C1)NC(=O)C2=CC(=CC=C2)N(C)C)NC(=O)C3=CC=C(C=C3)O
In short: as §1

[20] = compound: CC1=CC=C(C=C1)SC2=C3C=C(SC3=CN=C2)C(=O)N
In short: as §1

Measured: log2 fold change

PRKAA1 isoform 2 (UniProt Q13131)
inactive: [1] -0.037 | [2] -0.052 | [3] -0.001 | [4] -0.004 | [5] -0.008 | [6] -0.03 | [7] 0.179 | [8] 0.248 | [9] 0.024 | [10] 0.073 | [11] 0.033 | [12] 0.021 | [13] 0.006 | [14] -0.004 | [15] -0.061 | [16] 0.006 | [17] 0.019 | [18] -0.018 | [19] 0.016 | [20] -0.034

PPIL1 (UniProt Q9Y3C6)
inactive: [1] 0 | [2] 0.026 | [3] -0.039 | [4] 0.021 | [5] 0.016 | [6] 0 | [7] -0.022 | [8] -0.009 | [9] 0.038 | [10] 0.016 | [11] 0.012 | [12] -0.01 | [13] 0.015 | [14] -0.041 | [15] -0.052 | [16] -0.024 | [17] -0.011 | [18] -0.039 | [19] 0.025 | [20] -0.02

PROSER2 (UniProt Q86WR7)
inactive: [1] -0.028 | [2] -0.046 | [3] 0.042 | [4] 0.026 | [5] -0.012 | [6] -0.03 | [7] 0.028 | [8] -0.038 | [9] -0.042 | [10] 0.038 | [11] 0.056 | [12] -0.009 | [13] 0.023 | [14] -0.029 | [15] -0.054 | [16] 0.051 | [17] -0.013 | [18] 0.038 | [19] -0.03 | [20] -0.03

PPP1R12C isoform 4 (UniProt Q9BZL4)
inactive: [1] 0.061 | [2] -0.078 | [3] 0.037 | [4] -0.055 | [5] -0.021 | [6] 0 | [7] -0.009 | [8] 0.013 | [9] 0.007 | [10] -0.002 | [11] 0.022 | [12] -0.002 | [13] 0.016 | [14] -0.018 | [15] -0.002 | [16] 0.04 | [17] -0.028 | [18] 0.022 | [19] 0.001 | [20] -0.03

PRMT8 (UniProt Q9NR22)
inactive: [1] 0.01 | [2] -0.003 | [3] 0.009 | [4] -0.046 | [5] -0.015 | [6] 0.024 | [7] -0.031 | [8] -0.012 | [9] 0.013 | [10] 0.024 | [11] -0.073 | [12] -0.012 | [13] 0.036 | [14] -0.018 | [15] 0.003 | [16] -0.028 | [17] 0.009 | [18] 0.032 | [19] 0.002 | [20] 0.007

PRKRA (UniProt O75569)
inactive: [1] 0.016 | [2] -0.1 | [3] -0.061 | [4] -0.01 | [5] 0.08 | [6] 0.012 | [7] -0.012 | [8] -0.074 | [9] 0.018 | [10] 0.033 | [11] -0.043 | [12] -0.01 | [13] 0.035 | [14] 0.011 | [15] 0.013 | [16] 0.045 | [17] -0.038 | [18] 0.002 | [19] 0.056 | [20] 0.019

PPP1R13L (UniProt Q8WUF5)
inactive: [1] 0.014 | [2] 0.006 | [3] 0.034 | [4] -0.049 | [5] -0.078 | [6] 0.01 | [7] -0.064 | [8] -0.036 | [9] 0.079 | [10] 0 | [11] 0.109 | [12] -0.036 | [13] 0.083 | [14] -0.26 | [15] -0.015 | [16] -0.084 | [18] -0.003 | [19] 0.035 | [20] -0.104

PRCC (UniProt Q92733)
inactive: [1] -0.015 | [2] -0.064 | [3] 0.066 | [4] -0.01 | [5] -0.018 | [6] -0.009 | [7] 0.028 | [8] -0.005 | [9] -0.001 | [10] 0.005 | [11] 0.044 | [12] -0.008 | [13] -0.02 | [14] -0.019 | [15] 0.015 | [16] 0.039 | [17] -0.01 | [18] 0.065 | [19] 0 | [20] -0.03

Quoted from the entries so far (2 entries):
PPP1R13L (UniProt Q8WUF5)
inactive: [1] 0.014 | [2] 0.006 | [3] 0.034 | [4] -0.049 | [5] -0.078 | [6] 0.01 | [7] -0.064 | [8] -0.036 | [9] 0.079 | [10] 0 | [11] 0.109 | [12] -0.036 | [13] 0.083 | [14] -0.26 | [15] -0.015 | [16] -0.084 | [18] -0.003 | [19] 0.035 | [20] -0.104

PRCC (UniProt Q92733)
inactive: [1] -0.015 | [2] -0.064 | [3] 0.066 | [4] -0.01 | [5] -0.018 | [6] -0.009 | [7] 0.028 | [8] -0.005 | [9] -0.001 | [10] 0.005 | [11] 0.044 | [12] -0.008 | [13] -0.02 | [14] -0.019 | [15] 0.015 | [16] 0.039 | [17] -0.01 | [18] 0.065 | [19] 0 | [20] -0.03

(next part)

PPP1R16A (UniProt Q96I34)
inactive: [1] 0.177 | [2] -0.074 | [3] 0.018 | [4] 0.011 | [5] -0.11 | [6] -0.009 | [7] 0.02 | [8] -0.099 | [9] 0.058 | [10] 0.058 | [11] 0 | [12] -0.005 | [13] 0.089 | [14] -0.147 | [15] -0.185 | [19] 0.147 | [20] -0.131

PROSER1 (UniProt Q86XN7)
inactive: [1] 0.162 | [2] -0.445 | [3] 0.308 | [4] -0.065 | [5] 0.053 | [6] 0.03 | [7] -0.06 | [10] 0.016 | [11] 0.009 | [12] 0.1 | [13] 0.181 | [14] -0.072 | [15] -0.05 | [16] 0.137 | [17] -0.04 | [19] -0.044 | [20] 0.005

PREB (UniProt Q9HCU5)
inactive: [1] 0.002 | [2] -0.034 | [3] 0.023 | [4] 0.036 | [5] 0.04 | [6] -0.004 | [7] -0.067 | [8] -0.026 | [9] 0.017 | [10] 0.003 | [11] -0.004 | [12] -0.005 | [13] 0.012 | [14] -0.013 | [15] -0.006 | [16] 0.033 | [17] -0.001 | [18] 0.051 | [19] 0.008 | [20] -0.016

PPIP5K2 (UniProt H0Y9S9)
inactive: [1] 0 | [2] -0.115 | [3] -0.071 | [4] -0.017 | [5] 0.057 | [6] 0.059 | [7] -0.083 | [8] -0.085 | [9] -0.083 | [10] -0.059 | [11] 0.053 | [12] 0.052 | [13] -0.188 | [14] -0.19 | [15] 0.093 | [17] -0.076 | [19] 0.113 | [20] -0.027

PRIMPOL (UniProt Q96LW4)
inactive: [1] -0.063 | [2] 0.007 | [3] -0.02 | [4] -0.025 | [5] 0.076 | [6] -0.013 | [7] 0.019 | [8] 0.009 | [9] -0.046 | [10] 0.059 | [11] 0.062 | [13] 0.055 | [14] -0.027 | [15] 0.048 | [16] -0.055 | [17] -0.034 | [18] 0.078 | [19] 0.049

PRKAG2 (UniProt Q9UGJ0)
inactive: [1] -0.048 | [2] -0.033 | [3] -0.018 | [4] -0.038 | [5] -0.003 | [6] -0.015 | [7] 0.148 | [8] 0.144 | [9] 0.028 | [10] 0.075 | [11] -0.007 | [12] 0.05 | [13] 0.044 | [14] 0.038 | [15] -0.013 | [16] 0.034 | [17] 0.053 | [18] -0.031 | [19] -0.035 | [20] -0.021

PPT2, A0A140T9Y1
inactive: [16] -0.142

PRDM2 (UniProt Q13029)
inactive: [1] 0.016 | [2] -0.028 | [3] 0.035 | [4] -0.019 | [5] 0.124 | [6] -0.058 | [7] 0.03 | [10] -0.056 | [11] 0.038 | [12] 0.051 | [13] 0.013 | [14] -0.052 | [15] 0.078 | [17] -0.272 | [19] 0.028 | [20] 0.074
